Test results taken from PMC8533325.
Residue numbers refer to the chain shown, from its start. Where two headings read alike, the source gives them in different places. No constants are given. Whether binding was seen depends on the method and setting. Binding seen in cells or lysates may run through a third protein. Some results given as binding are weak or reduced against the parent protein; the word gives no strength. Where a sequence is shown, tags or fusion partners need not be part of it.

Chains of the proteins cited; added tags and fusions are not shown.
UniProt Q06609: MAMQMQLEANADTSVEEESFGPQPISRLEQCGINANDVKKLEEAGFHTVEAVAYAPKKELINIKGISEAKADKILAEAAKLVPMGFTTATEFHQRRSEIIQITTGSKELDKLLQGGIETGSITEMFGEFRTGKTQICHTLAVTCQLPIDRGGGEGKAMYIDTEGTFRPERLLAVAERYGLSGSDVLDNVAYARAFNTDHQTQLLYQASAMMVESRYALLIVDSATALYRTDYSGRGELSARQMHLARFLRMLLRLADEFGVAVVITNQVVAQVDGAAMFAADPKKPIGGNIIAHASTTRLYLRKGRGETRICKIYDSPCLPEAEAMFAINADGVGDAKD
UniProt P09884: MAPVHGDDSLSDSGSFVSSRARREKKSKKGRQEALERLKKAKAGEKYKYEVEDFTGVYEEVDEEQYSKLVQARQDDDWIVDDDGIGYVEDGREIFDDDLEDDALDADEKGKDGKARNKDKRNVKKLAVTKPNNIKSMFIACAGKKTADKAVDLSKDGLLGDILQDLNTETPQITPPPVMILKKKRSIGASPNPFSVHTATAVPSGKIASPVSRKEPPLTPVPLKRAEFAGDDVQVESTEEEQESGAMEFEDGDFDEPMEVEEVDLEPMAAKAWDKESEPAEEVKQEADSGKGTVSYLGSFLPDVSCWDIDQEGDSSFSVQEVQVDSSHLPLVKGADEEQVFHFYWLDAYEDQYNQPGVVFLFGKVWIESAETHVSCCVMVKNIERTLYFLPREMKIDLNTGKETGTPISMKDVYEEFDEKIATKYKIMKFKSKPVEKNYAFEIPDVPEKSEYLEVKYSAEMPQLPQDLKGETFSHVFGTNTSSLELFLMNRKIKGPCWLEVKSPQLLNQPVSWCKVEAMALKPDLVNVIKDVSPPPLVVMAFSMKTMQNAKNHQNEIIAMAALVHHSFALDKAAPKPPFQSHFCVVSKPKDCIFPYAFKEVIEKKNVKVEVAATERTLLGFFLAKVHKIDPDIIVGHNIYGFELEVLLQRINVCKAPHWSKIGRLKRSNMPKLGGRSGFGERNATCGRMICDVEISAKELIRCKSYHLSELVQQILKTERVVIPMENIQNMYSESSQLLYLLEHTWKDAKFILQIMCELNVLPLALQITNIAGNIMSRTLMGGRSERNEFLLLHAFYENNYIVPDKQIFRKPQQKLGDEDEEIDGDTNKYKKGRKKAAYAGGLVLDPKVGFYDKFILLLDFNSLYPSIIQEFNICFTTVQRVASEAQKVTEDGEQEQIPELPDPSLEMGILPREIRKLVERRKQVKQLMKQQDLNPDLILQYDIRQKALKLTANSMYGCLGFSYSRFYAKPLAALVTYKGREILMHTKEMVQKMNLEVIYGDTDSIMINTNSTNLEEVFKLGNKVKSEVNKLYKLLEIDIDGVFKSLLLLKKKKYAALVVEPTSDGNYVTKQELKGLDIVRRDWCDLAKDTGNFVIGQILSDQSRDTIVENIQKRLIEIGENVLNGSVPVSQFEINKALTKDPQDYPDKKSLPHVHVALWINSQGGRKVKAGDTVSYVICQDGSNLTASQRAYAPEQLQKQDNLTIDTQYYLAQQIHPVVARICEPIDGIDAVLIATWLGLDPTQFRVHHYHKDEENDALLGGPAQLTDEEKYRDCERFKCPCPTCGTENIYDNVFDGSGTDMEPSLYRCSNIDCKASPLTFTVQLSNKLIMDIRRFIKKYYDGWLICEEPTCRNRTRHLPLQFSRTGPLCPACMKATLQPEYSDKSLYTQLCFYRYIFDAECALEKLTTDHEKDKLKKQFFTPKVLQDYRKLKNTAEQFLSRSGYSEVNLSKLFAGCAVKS

T1: Myc-STN1 (WT) (human) (UniProt Q9H668)
T1 sequence: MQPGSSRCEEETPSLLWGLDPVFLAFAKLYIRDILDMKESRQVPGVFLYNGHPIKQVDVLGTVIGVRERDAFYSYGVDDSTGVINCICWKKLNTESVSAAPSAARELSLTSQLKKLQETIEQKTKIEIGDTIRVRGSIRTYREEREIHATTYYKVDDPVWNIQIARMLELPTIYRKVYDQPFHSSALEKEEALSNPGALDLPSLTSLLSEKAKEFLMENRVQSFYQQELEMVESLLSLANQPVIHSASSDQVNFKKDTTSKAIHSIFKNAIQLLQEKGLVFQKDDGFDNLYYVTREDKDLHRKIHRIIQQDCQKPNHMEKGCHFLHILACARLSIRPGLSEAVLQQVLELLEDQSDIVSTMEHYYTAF

T2: Myc-STN1 S111A (human) (UniProt Q9H668)
T2 sequence: T1 sequence with S111A

T3: Myc-STN1 E95G (human) (UniProt Q9H668)
T3 sequence: T1 sequence with E95G

T4: Myc-STN1 T94A (human) (UniProt Q9H668)
T4 sequence: T1 sequence with T94A

B1: Flag-CTC1 (protein, UniProt Q2NKJ3 1-1217)
chain: MAAGRAQVPSSEQAWLEDAQVFIQKTLCPAVKEPNVQLTPLVIDCVKTVWLSQGRNQGSTLPLSYSFVSVQDLKTHQRLPCCSHLSWSSSAYQAWAQEAGPNGNPLPREQLLLLGTLTDLSADLEQECRNGSLYVRDNTGVLSCELIDLDLSWLGHLFLFPRWSYLPPARWNSSGEGHLELWDAPVPVFPLTISPGPVTPIPVLYPESASCLLRLRNKLRGVQRNLAGSLVRLSALVKSKQKAYFILSLGRSHPAVTHVSIIVQVPAQLVWHRALRPGTAYVLTELRVSKIRGQRQHVWMTSQSSRLLLLKPECVQELELELEGPLLEADPKPLPMPSNSEDKKDPESLVRYSRLLSYSGAVTGVLNEPAGLYELDGQLGLCLAYQQFRGLRRVMRPGVCLQLQDVHLLQSVGGGTRRPVLAPCLRGAVLLQSFSRQKPGAHSSRQAYGASLYEQLVWERQLGLPLYLWATKALEELACKLCPHVLRHHQFLQHSSPGSPSLGLQLLAPTLDLLAPPGSPVRNAHNEILEEPHHCPLQKYTRLQTPSSFPTLATLKEEGQRKAWASFDPKALLPLPEASYLPSCQLNRRLAWSWLCLLPSAFCPAQVLLGVLVASSHKGCLQLRDQSGSLPCLLLAKHSQPLSDPRLIGCLVRAERFQLIVERDVRSSFPSWKELSMPGFIQKQQARVYVQFFLADALILPVPRPCLHSATPSTPQTDPTGPEGPHLGQSRLFLLCHKEALMKRNFCVPPGASPEVPKPALSFYVLGSWLGGTQRKEGTGWGLPEPQGNDDNDQKVHLIFFGSSVRWFEFLHPGQVYRLIAPGPATPMLFEKDGSSCISRRPLELAGCASCLTVQDNWTLELESSQDIQDVLDANKSLPESSLTDLLSDNFTDSLVSFSAEILSRTLCEPLVASLWMKLGNTGAMRRCVKLTVALETAECEFPPHLDVYIEDPHLPPSLGLLPGARVHFSQLEKRVSRSHNVYCCFRSSTYVQVLSFPPETTISIPLPHIYLAELLQGGQSPFQATASCHIVSVFSLQLFWVCAYCTSICRQGKCTRLGSTCPTQTAISQAIIRLLVEDGTAEAVVTCRNHHVAAALGLCPREWASLLDFVQVPGRVVLQFAGPGAQLESSARVDEPMTMFLWTLCTSPSVLRPIVLSFELERKPSKIVPLEPPRLQRFQCGELPFLTHVNPRLRLSCLSIRESEYSSSLGILASSC
B2: HA-TEN1 (protein, UniProt Q86WV5 1-123)
chain: MMLPKPGTYYLPWEVSAGQVPDGSTLRTFGRLCLYDMIQSRVTLMAQHGSDQHQVLVCTKLVEPFHAQVGSLYIVLGELQHQQDRGSVVKARVLTCVEGMNLPLLEQAIREQRLYKQERGGSQ

How the values were obtained:
Assay in all cases: co-IP; HEK293T cells co-transfected with Flag-CTC1, HA-TEN1 and WT or mutant Myc-STN1, treated with or without HU (2 mM; 16 h or 24 h); lysis in 0.1% NP-40, 50 mM Tris-HCl pH 7.4, 50 mM NaCl, 2 mM DTT; anti-Myc immunoprecipitation overnight at 4 °C; Western blot
Myc-STN1 (WT) (human) [1] = molecular target: T1, Myc-STN1 (WT) (human)
Myc-STN1 S111A (human) = molecular target: T2, Myc-STN1 S111A (human)
Myc-STN1 E95G (human) = molecular target: T3, Myc-STN1 E95G (human)
Myc-STN1 T94A (human) = molecular target: T4, Myc-STN1 T94A (human)
Myc-STN1 (WT) (human) [2] = molecular target: T1, Myc-STN1 (WT) (human); remark: listed apart in the source

Molecule	binding (Myc-STN1 (WT) (human) [1])	binding (Myc-STN1 S111A (human))	binding (Myc-STN1 E95G (human))	binding (Myc-STN1 T94A (human))	binding (Myc-STN1 (WT) (human) [2])
RAD51 (from UniProt Q06609 1-339)	binds	–	–	–	–
POLA1 (from UniProt P09884 1-1462)	binds	binds	binds	binds	–
B1	–	–	–	–	binds
B2	–	–	–	–	binds
